# Measurements taken from publication doi:10.1101/341834.
# Protein sequences, listed by entry. Tags and fused reporters are not part of them.
# UniProt P93002: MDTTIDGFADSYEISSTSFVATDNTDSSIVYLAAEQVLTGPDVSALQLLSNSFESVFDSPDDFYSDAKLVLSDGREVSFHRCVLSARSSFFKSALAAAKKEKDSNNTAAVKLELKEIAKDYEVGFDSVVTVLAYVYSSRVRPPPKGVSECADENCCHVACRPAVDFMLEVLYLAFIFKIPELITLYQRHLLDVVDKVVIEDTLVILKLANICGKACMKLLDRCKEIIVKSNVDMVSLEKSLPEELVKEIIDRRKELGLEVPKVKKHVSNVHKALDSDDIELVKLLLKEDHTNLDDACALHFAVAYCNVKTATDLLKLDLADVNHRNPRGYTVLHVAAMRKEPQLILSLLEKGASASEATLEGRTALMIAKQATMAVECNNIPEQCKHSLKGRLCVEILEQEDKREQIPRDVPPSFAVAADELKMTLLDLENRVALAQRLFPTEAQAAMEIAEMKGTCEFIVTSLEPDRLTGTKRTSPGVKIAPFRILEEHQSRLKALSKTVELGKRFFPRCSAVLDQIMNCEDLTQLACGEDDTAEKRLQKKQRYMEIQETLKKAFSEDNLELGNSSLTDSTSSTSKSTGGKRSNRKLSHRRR
# Results are given in words; binding and its absence hold for the method and conditions named. Some binding calls cover weakened binding; strength is not graded here.
# B1: GAD–NtTGA10 (protein, UniProt Q52MZ2 1-506)
# chain: MGFERAFVESSPEQENKLFVGVSYMDSSNKNQDPSESNNQISFGGQHQHHQQQFFYNHHQQQQLQNNNQVSFGMMQQSSSAIPGSLISKDSAGAYDLGELDQALFQYLDGQEPSSIQEQRQNSGMRPPTLNIFPSQPMHVEPSTTNKMNTGLVSPAISGSKRSSQPSMELSNNLKNNDAPSASGPEPPKAAKREGNRKGPTSSSEQDAPKTPDPKTLRRLAQNREAARKSRLRKKAYVQQLESSRIRLTQLEQELQRARAQGYYFGGNSLLGGEQNLPVNLANMSSDAAVFDMEYARWLEEHHRLMCELRNAVQEHFPENELRIYVDNCVTHYDEIMNLKSMLTKSDVFHLVSGMWKTPAERCFMWMGGFRPSELLKIILSQIEPLTEQQLMGICGLQQSTQEAEDALSQGLEALNHSLSDTIASDALSCPQNMANYMGQMALAMNKLSTLEGFVRQADNLRHQTIHRLHQLLTTRQAARCFLAIAEYFHRLRALSSLWHARPRQE
# B2: GAD–NtTGA1a (protein, UniProt P14232 1-359)
# chain: MGICDPIHQLGMWDDFNSSFPSTSATMILEVDKCLEDQIPIMEKRLDNETEDTSHGTVGTSNRYEPETSKPVEKVLRRLAQNREAARKSRLRKKAYVQQLENSKLKLIQLEQELERARKQGMCVGGGVDASQLSYSGTASSGTAVFDMEYGHWVEEQTRQTNDLRIALHSQIGEAELRIIVDGYLNHYFDLFRMKATAAKADVLYIMSGMWKTSAERFFMWIGGFRPSELLKVLTPHLELLTEQQLREVCNLTQSCQQAEDALSQGMVKLHQILAEAVAAGRLGEGNYTLPQMGPAIEKLEDLVRFVNQADHLRQETLQQMSRILNTCQAAQGLLALGEYFERLRVLSSQWATRLREPT
# B3: GAD–NtTGA2.1 (protein, UniProt O24160 1-456)
# chain: MASKIGTAGNRSGTTGMPSFISQIPVSNPMGTEANNTNTSRMSDFGVLEQYLGFRIGDGANVNRSPLFNSTSATNPAVGFEVSGTINRTLAPSNTSLPTATPRSQTMLLQSNLVSASGTHHENWGESNMADSGSRTDTSTDMDGDDKNQLIEAGQSSDKSKEKVLDQKTLRRLAQNREAARKSRLRKKAYVQQLENSRLKLSQLEQDLQRARQQGKYISNIADQSNGVGANGPLAFDAEYSRWLEEHNKHINELRTAVNAHASDPELRSIVNNVTAHFDEVFRVKGNAAKADVFHVLSGMWKTPAERCFMWIGGFRPSELLKLLVNQLEPLTEQQLAGIYNLQQSSHQAEDALSQGMEALQQSLAETLANGSPAPEGSSGDVANYMGQMAMAMGKLGTLEGFLRQADNLRQQTLQQMHRVLTTRQSARALLAINEYFSRLRALSSLWLARPREQLV
# Target: GBD–AtNPR1 (Arabidopsis) (UniProt P93002)
# Assay: two-hybrid
row,binding,Binder
1,no binding,B1
2,no binding,B2
3,binds,B3
